These are yes or no findings as the source states them, for the method shown. In cells and extracts the contact can be indirect. A yes stands for co-enrichment or nearness to the bait. Other partners may have been found.
B1: endogenous RAB3GAP1 (mouse brain) (protein, UniProt Q80UJ7 1-981)
chain: MAADSEPESEVFEITDFTTASEWERFISKVEEVLNDWKLIGPSLGKPLEKGIFTSGTWEERSDEISFADFRFSVTHHYLVQESPDKERKDEELEDAIPQSMQDLLCMNNDFPPRAHCLVRWYGLREFVVIAPAAHSDAVLSESKCNLLLSSISIALGNTGCQVPLFVQIHHKWRRMYMGECQGPGVRTDFEMVHLRKVPSQYTHLSGLLDIFKSKIGCPLTPLPPVSIAIRLTYVLQDWQQYFWPQQPPDIDALVGGEVGGLEFGKLPFGACEDPISELHLATTWPHLTEGIIVDNDVYSDLDPVQAPHWSVRVRKADNPQCLLGDFVTEFLKICRRKESTDEILGRSTFEEEGREVADITHALSKLTEPAPVPIHKLSVSNMVHTAKKKIRKHRGEESPLNSDVLNTILLFLFPDAVSEKPLDGTTSIDNSIPAPEAGDYTLYNQFKSAPSDSLTYKLALCLCMINFYHGGLKGVAHLWQEFVLEMRFRWENNFLIPGLASGSPDLRCCLLHQKLQMLNCCIERKKARDEGKKTSLSDSTTSAYPGDAGKTGGQLGLDHLRDTEKEKGEVGKSWDSWSDSEEEFFECLSDTEDLKGNGQESGKKGGPKEMANLKPEGRLHQHGKLTLLHNGEPLYIPVTQEPAPMTEDLLEEQSEVLAKLGTSAEGAHLRARMQSACLLSDMESFKAANPGCFLEDFVRWYSPRDYIEEEVTDEKGNVVLKGELSARMKIPSNMWVEAWETAKPVPARRQRRLFDDTREAEKVLHYLAMQKPADLARHLLPCVIHAAVLKVKEEESLENIPSVKKIIKQIIAHSSKVLHFPNPEDKKLEEIILQITTVEAIIARARSLKAKFGTEKCEHEEEKEGLERFVSCLLEQPEVSVTGAGRGHAGRIIHKLFVNAQRAAAVALPEEELKKSGCPEERRQTLVSDFPPPAGRELILRATVPRPAPYSKALPQRMYSVLTKEDFRLAGAFSSDTSFF
B2: endogenous RAB3GAP2 (mouse brain) (protein, UniProt Q8BMG7 1-1366)
chain: MACSIVQFCSFQDLQSARDFLFPHLREETPGALKRDPSKTSSWEDDSWGAWEETEPREPEEEGNTSKTQKNSWLQECVLSLSPTSDLMVIAREQKAAFLVRKWKHGDKGKEEMQFAVGWSGSVSAEEGEYVTSALCIPLASQKRSSTGRPDWTCIVVGFTSGYVRFYTEGVLLLAQLLNEDKVLQLKCRTYEIPRHPGVTEQNEELSILYPAAIVTIDGFSLFQSLRACRNQVAKAAASGNENIQPPPLAYKKWGLQDIDTIIDHASVGIMTLSPFDQMKTASNIGGFNAAIKNSPPAMSQYITVGSSPFTGFFYALEGSTQPLLSHVALAVASKLTSALFSAASGWLGWKSKHEEDTVQKQKPKMEPATPLAVRFGLPDSRRHGESICLSPCNTLAAVTDDFGRVILLDVARGIAIRMWKGYRDAQVGWIQIVEDLHERVPEKGGFSPFGNTQGPSRVAQFLVIYAPRRGILEVWNTQQGPRVGAFNVGKHCRLLYPGYKIMGLNNVTSQSWQPQTYQICLVDPVSASVKAVNVPFHLALSDKKSERAKDLHLVKKLSALLRAKSPRPDSFETEIKELILDIKYPATKKQALESILASDRLSFSCLRNVTQTLMDTLKNQELESVDEGLLQFCASKLKLLHLYESVSQLNTLDFHSDTPFSDNDLAVLLRLDDKELLKLRALLEKYKQENTKATVRFSEDADRVLPVKTFLEYLEYEKDALSIRKIGEEECVALGSFFFWKCLHGKSSTEEMCHSLESAGLSPQQLLSLLLSVWLSKEKDILDKPQSVCCLHTMLSLLSKMKVAIDETWDSQSVSPWWQQMRMACIQSENSGAALLSAHVGHSVAAQMSSGATDKKFSQMELDADAEALTDSWEALSLDTEYWKLLLRQLEDCLILQTLLHSKLSPPAAKAPSLQSEPLPRLSVKKLLEGGKGGIADSVAKWIFKQDLSPELLKCANKERDVENPDEPREDLLHLAYEQFPCSLELDVLHAHCCWEYVVQWNKDPEEARFLVRSIEHLKQILNPHVQNGIALMMWNTFLVKRFSAATYLMDKVGKSPKDRLCRRDVGMSDTALTSFLGSCLELLQTSLEADISRDEVQVPVLDTEDAWLSVEGPISIVELALEQKPIHYPLVEHHSVLCSILYASMRFSLKSVKPLALFDSKGKNAFFKDLTSIQLLPSGEMDPNFISVRQQFLLKVVSAAVQAQHSKDKDPSAEAANTHWKDLNWPGLAVDLAHHLQVSDDVIRRHYVGELYSHGADLLGEEAIFQVQDKEVLASQLLVLTGQRLAHALFHTQTKEGMELLARLPPTLCTWLKAMNPQDLQNTGVPIAATAKLVHKVMELLPEKHGQYSLALHLIDAVEAMATL

Chains of the proteins cited; added tags and fusions are not shown.
UniProt Q9QY76: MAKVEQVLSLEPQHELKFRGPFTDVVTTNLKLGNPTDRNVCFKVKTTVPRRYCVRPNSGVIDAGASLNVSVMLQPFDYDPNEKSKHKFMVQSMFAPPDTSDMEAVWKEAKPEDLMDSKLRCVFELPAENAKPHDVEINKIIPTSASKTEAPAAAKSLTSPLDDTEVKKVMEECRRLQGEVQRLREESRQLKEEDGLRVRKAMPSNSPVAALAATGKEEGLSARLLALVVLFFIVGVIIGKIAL
UniProt P61264: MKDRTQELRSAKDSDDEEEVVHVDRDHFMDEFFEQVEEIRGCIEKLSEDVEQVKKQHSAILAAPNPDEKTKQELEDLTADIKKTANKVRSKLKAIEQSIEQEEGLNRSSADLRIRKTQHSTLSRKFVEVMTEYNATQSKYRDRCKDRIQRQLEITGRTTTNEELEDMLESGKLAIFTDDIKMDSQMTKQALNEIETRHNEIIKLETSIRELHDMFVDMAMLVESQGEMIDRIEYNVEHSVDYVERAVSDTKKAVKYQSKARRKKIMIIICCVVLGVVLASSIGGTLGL

Target: endogenous VAPB (mouse brain) (mouse (endogenous in brain)) (UniProt Q9QY76)
Assay: affinity purification with mass spectrometry; endogenous VAPB immunoprecipitated from mouse brain extracts; uncoupled Protein A-beads as control

Molecule	binding
endogenous syntaxin 1B (mouse brain) (from UniProt P61264 1-288)	binds
B1	binds
B2	binds

— publication PMC4068158
